PMC5362914
These are yes or no findings as the source states them, for the method shown. Binding seen in cells or lysates may run through a third protein. Some results given as binding are weak or reduced against the parent protein; the word gives no strength.

Protein sequences, listed by entry. Tags and fused reporters are not part of them.
UniProt Q7TQN4: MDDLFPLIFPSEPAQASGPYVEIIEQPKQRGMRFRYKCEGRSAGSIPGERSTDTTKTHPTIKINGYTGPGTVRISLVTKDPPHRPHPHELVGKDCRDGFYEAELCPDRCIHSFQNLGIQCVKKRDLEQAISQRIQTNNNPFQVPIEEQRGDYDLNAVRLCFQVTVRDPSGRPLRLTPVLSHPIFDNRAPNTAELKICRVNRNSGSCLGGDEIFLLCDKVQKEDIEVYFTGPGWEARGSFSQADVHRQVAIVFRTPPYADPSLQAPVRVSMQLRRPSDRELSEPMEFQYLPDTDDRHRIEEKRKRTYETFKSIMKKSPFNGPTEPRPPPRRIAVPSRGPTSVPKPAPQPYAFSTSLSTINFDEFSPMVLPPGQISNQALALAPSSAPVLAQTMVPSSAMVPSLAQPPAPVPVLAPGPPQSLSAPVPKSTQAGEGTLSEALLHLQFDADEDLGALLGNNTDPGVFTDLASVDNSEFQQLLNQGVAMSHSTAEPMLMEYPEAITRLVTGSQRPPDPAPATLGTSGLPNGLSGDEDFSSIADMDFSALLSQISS
UniProt Q8R455: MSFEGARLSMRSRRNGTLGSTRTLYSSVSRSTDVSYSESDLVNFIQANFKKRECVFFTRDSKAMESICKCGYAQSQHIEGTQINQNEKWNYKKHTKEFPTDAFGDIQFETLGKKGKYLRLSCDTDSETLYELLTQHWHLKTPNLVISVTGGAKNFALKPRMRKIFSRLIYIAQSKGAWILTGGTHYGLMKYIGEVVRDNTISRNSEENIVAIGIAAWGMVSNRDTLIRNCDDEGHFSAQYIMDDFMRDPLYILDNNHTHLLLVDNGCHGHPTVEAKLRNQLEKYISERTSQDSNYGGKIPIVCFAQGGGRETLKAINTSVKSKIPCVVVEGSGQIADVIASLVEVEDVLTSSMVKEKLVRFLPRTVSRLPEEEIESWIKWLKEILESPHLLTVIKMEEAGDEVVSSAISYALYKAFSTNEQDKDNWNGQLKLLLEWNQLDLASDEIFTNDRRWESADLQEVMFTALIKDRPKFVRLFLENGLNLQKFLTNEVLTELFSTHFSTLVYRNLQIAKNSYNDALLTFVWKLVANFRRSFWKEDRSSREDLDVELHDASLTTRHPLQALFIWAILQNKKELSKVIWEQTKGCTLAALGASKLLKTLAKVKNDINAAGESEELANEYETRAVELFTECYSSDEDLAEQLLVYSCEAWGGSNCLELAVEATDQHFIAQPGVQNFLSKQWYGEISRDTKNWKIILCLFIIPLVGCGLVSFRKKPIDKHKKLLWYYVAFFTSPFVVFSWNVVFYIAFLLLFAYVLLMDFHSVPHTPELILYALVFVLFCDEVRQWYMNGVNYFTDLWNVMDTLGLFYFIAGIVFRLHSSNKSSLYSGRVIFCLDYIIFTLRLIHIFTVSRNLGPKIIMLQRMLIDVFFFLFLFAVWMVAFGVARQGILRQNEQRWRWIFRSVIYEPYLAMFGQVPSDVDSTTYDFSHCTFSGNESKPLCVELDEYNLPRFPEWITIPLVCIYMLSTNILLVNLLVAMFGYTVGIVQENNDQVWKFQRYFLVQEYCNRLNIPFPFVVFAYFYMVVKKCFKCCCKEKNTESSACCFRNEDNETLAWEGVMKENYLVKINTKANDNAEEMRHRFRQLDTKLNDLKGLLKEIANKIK

Key:
[1] = biological target: nuclear factor kappa B (NFκB) p65 (rat (endogenous in PC12)) (UniProt Q7TQN4); experiment: co-IP; endogenous proteins in total lysate of PC12 cells (wild type and Trpm8 knockdown; 37 °C or cold, 4 °C); lysate incubated with NFκB or TRPM8 antibodies at 4 °C for 1-24 h, protein G Plus-Agarose, washed with lysis buffer containing NP-40, Western blot
[2] = biological target: Transient Receptor Potential Melastatin-8 (TRPM8) (rat (endogenous in PC12)) (UniProt Q8R455); experiment: as above

Substance: Transient Receptor Potential Melastatin-8 (TRPM8) (from UniProt Q8R455 1-1104)
- binding [1]: binds

Substance: nuclear factor kappa B (NFκB) p65 (from UniProt Q7TQN4 1-550)
- binding [2]: binds
